According to article PMC10504283:
Results are given in words; binding and its absence hold for the method and conditions named. Binding seen in cells or lysates may run through a third protein. Some binding calls cover weakened binding; strength is not graded here. Tags and fused reporters may be left off the sequences shown.

T1: GFP-PmoA (Methylosinus trichosporium OB3b) (UniProt Q50541)
T1 sequence: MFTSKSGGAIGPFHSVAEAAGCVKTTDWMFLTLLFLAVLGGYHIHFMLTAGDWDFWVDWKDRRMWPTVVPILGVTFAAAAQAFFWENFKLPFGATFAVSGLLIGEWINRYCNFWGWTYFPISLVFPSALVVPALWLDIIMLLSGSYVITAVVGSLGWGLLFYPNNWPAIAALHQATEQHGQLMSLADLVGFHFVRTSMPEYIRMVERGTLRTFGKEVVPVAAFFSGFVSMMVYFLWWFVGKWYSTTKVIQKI

T2: GFP-PmoC (Methylosinus trichosporium OB3b) (UniProt Q9KX51)
T2 sequence: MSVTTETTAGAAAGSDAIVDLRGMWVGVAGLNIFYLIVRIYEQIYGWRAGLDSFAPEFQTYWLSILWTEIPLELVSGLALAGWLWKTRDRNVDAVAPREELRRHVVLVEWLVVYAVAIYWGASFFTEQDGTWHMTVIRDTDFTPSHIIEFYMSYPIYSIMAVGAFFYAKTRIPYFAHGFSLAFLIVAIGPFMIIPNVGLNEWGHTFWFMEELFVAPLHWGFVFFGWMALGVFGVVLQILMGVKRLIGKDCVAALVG

T3: PmoA-GFP (Methylosinus trichosporium OB3b) (UniProt Q50541)
T3 sequence: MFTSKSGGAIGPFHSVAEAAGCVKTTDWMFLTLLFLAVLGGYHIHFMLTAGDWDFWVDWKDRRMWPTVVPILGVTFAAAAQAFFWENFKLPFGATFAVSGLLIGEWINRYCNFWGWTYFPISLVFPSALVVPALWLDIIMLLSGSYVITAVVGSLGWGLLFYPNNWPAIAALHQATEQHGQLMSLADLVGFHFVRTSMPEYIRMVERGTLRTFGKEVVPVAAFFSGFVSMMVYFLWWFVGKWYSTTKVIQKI


What was measured:
Experiment in all cases: FRET or BRET; FRET-FLIM (two-photon fluorescence lifetime imaging) in plant cells co-expressing a GFP donor fusion and an RFP or mCherry acceptor fusion; lifetimes measured in the nuclear envelope; a donor lifetime significantly lower than that of the donor alone is taken as interaction
[1] = molecular target: T1, GFP-PmoA (Methylosinus trichosporium OB3b)
[2] = molecular target: T2, GFP-PmoC (Methylosinus trichosporium OB3b)
[3] = molecular target: T3, PmoA-GFP (Methylosinus trichosporium OB3b)

binding [1]	binding [2]	binding [3]	Binder
binds	binds		csPmoB-loopRFP (domain or fragment, UniProt Q9KX50 40-431) HGEKSQQAFLRMRTLNWYDVKWSKTSLNVNESMVLSGKVHVFSAWPQAVANPKSSFLNAGEPGPVLVRTAQFIGEQFAPRSVSLEVGKDYAFSIDLKARRAGRWHVHAQINVEGGGPIIGPGQWIEIKGDMADFKDPVTLLDGTTVDLETYGIDRIYAWHFPWMIAAAAWILYWFFKKGIIASYLRISEGKDEEQIGDDDRRVGAIVLAVTILATIIGYAVTNSTFPRTIPLQAGLQKPLTPIIEEGTAGVGPHVVTAELKGGVYKVPGRELTIQVKVTNKTDEPLKLGEYTAAGLRFLNPDVFTTKPEFPDYLLADRGLSTDPTPLAPGETKTIEVKVQDARWDIERLSDLAYDTDSQIGGLLMFFSPSGKRYATEIGGPVIPKFVAGDMP
binds			GFP-PmoA (protein, UniProt Q50541 1-252) MFTSKSGGAIGPFHSVAEAAGCVKTTDWMFLTLLFLAVLGGYHIHFMLTAGDWDFWVDWKDRRMWPTVVPILGVTFAAAAQAFFWENFKLPFGATFAVSGLLIGEWINRYCNFWGWTYFPISLVFPSALVVPALWLDIIMLLSGSYVITAVVGSLGWGLLFYPNNWPAIAALHQATEQHGQLMSLADLVGFHFVRTSMPEYIRMVERGTLRTFGKEVVPVAAFFSGFVSMMVYFLWWFVGKWYSTTKVIQKI
		binds	mCherry-PmoC (protein, UniProt Q9KX51 1-256) MSVTTETTAGAAAGSDAIVDLRGMWVGVAGLNIFYLIVRIYEQIYGWRAGLDSFAPEFQTYWLSILWTEIPLELVSGLALAGWLWKTRDRNVDAVAPREELRRHVVLVEWLVVYAVAIYWGASFFTEQDGTWHMTVIRDTDFTPSHIIEFYMSYPIYSIMAVGAFFYAKTRIPYFAHGFSLAFLIVAIGPFMIIPNVGLNEWGHTFWFMEELFVAPLHWGFVFFGWMALGVFGVVLQILMGVKRLIGKDCVAALVG
		binds	PmoC-RFP (protein, UniProt Q9KX51 1-256) MSVTTETTAGAAAGSDAIVDLRGMWVGVAGLNIFYLIVRIYEQIYGWRAGLDSFAPEFQTYWLSILWTEIPLELVSGLALAGWLWKTRDRNVDAVAPREELRRHVVLVEWLVVYAVAIYWGASFFTEQDGTWHMTVIRDTDFTPSHIIEFYMSYPIYSIMAVGAFFYAKTRIPYFAHGFSLAFLIVAIGPFMIIPNVGLNEWGHTFWFMEELFVAPLHWGFVFFGWMALGVFGVVLQILMGVKRLIGKDCVAALVG
	binds		GFP-PmoC (protein, UniProt Q9KX51 1-256) MSVTTETTAGAAAGSDAIVDLRGMWVGVAGLNIFYLIVRIYEQIYGWRAGLDSFAPEFQTYWLSILWTEIPLELVSGLALAGWLWKTRDRNVDAVAPREELRRHVVLVEWLVVYAVAIYWGASFFTEQDGTWHMTVIRDTDFTPSHIIEFYMSYPIYSIMAVGAFFYAKTRIPYFAHGFSLAFLIVAIGPFMIIPNVGLNEWGHTFWFMEELFVAPLHWGFVFFGWMALGVFGVVLQILMGVKRLIGKDCVAALVG
